This experiment addresses EGFR WT protein in solution phase (MST) (UniProt P00533). Description: MST; Monolith NT.115 Pico, 25 °C; 10 nM protein labelled with NT 650 NHS; 16-step 1:1 dilution of peptide (top 50 µM …; FALGEA 20 µM for EGFR WT, 10 µM for EGFRvIII); 1× PBS pH 7.4, 0.005% Tween-20, 1% DMSO; three independent experiments; both purified.

This note sets out measurements from paper PMC9715707, “Identification of a novel peptide ligand for the cancer-specific receptor mutation EGFRvIII using high-throughput sequencing of phage-selected peptides” (Scientific Reports, 2022).

These are yes or no findings as the source states them, for the method shown.

As for FALGEA [FALGEA peptide (as used in microscale thermophoresis)], the binding result is “no binding (tested: 20 µM)”.
